Results deposited as PubChem BioAssay AID602196 (INSERM, 2012)
Assay: 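Genes whose knock-down alters cisplatin killing of lung cancer cells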. Cells: human A549 lung cancer cells. Reagents: siRNA pair against human genes. Time to read-out: 48 h transfection before cisplatin; time from cisplatin to read-out not stated. Conditions: cisplatin at a dose killing half of control-siRNA cells; exact dose and duration not given. Detection: 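Shift in cisplatin death relative to control siRNA, from -50 (all cells die) to +50 (no cells die); siRNAs harmful on their own scored 0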. Reading the numbers: two-siRNA summed score (-2 to +2): higher = both siRNAs protect from cisplatin killing; -2 means both sensitise; mean protection from cisplatin (shift in death) and protection from cisplatin (shift in death), siRNA C: higher = protection from cisplatin killing. Hit rule: 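Each siRNA scores 0 if harmful alone by LDH or WST-1, otherwise +1 if it reduces and -1 if it increases cisplatin killing; a gene is active when both siRNAs agree (sum +2 or -2)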. Meaning of the calls: active = both siRNAs shift cisplatin killing the same way; inactive = no consistent shift, or siRNA harmful alone.
Shown is a random part of about 23,000 deposited reagents. In the full data, 455 (2%) were called active. 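Active includes both protection and sensitisation; some change values fall well beyond the stated -50 to +50 range.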 Unmarked entries are inactive. Further read-outs or replicates are left out here. Reagent sequences are not shown. Not stated in the record: the amount of reagent.

gene | two-siRNA summed score (-2 to +2) | mean protection from cisplatin (shift in death) (%) | protection from cisplatin (shift in death), siRNA C (%)
NUP93 | 0 | -0.7 | -0.9
LOC441513 | 0 | -1.5 | -2
OR51Q1 | 0 | 6.1 | 16.8
PUM3 | 1 | 2.9 | -6.8
FRAS1 | 0 | 0.7 | -3.5
OR10H3 | -1 | -13.1 | -5.3
LOC442385 | 1 | 4.6 | -11
TUSC2 | -1 | -35.2 | -19.7
LOC388076 | 0 | 12.1 | 11.9
LOC401034 | 0 | 4.6 | -2.6
SLC66A1 | 0 | -1.7 | -10.8
CCT4 | -1 | -13.1 | -8.4
LOC391051 | 0 | -2.1 | -0.1
RPS17 | 0 | 30.2 | 24.9
LOC440019 | 0 | 8.9 | 4.2
LOC440329 | 1 | 34.4 | 55.7
LOC402397 | 0 | -0.6 | 6.7
SERPI-13 | 1 | 6.7 | 11.2
ARHGAP21 | 0 | 0.8 | 0.3
LOC388752 | 1 | 15.4 | 4.9
CEL | 0 | 4.4 | -1.3
PEX13 | 0 | -1.8 | -15.7
LOC339237 | 0 | 8.8 | -6.3
HOXD3 | 1 | 16.9 | 13.2
CAMKV | 1 | 18 | 27.7
GALNT12 | 0 | 13.1 | 10
NPC2 | -2 (active) | -12.6 | -14.8
GHR | 0 | 5.1 | -1.9
LOC441172 | 1 | 8.6 | 16.4
LOC388791 | 1 | 14.5 | 14.8
LOC440668 | 0 | 10.3 | 22.1
CYB5R2 | -1 | -24.8 | -26.5
YME1L1 | 0 | 2.4 | 9.3
MYO9B | 0 | 9.9 | 17.5
FLJ40244 | 0 | 25.8 | 37.5
TUBE1 | -1 | -15.5 | -6.6
RBM4B | 1 | 5.2 | 15.5
SMUG1 | -1 | -18.1 | -21.8
PGBD5 | 0 | 8.7 | 1.4
FZD9 | 0 | 2.6 | 7.3
ATP13A2 | 0 | -6.5 | -5
TXNL1 | -1 | -1.7 | -14.7
TPT1P9 | 1 | 12.4 | 12.1
NDST1 | 0 | 0.6 | 3.2
LOC339553 | 1 | 14.4 | 22.8
SLC25A12 | 0 | 8 | 13.2
LINC00906 | 0 | -0.3 | -11.2
LOC389129 | 0 | 6.5 | 4.1
NOL11 | 0 | 3.2 | -5.9
RARG | 0 | 3.5 | 9.8
PTHLH | 0 | -2.9 | -6.4
TMEM101 | 0 | 8.8 | -3.7
RPH3A | 1 | 16.7 | 28.7
SERHL | 0 | 9.6 | 11.4
FAM13C | 1 | 15.1 | 19.9
M6PR | 0 | 10.2 | 22.8
ALDH4A1 | -1 | -34.9 | -38.2
OR5D14 | 1 | 16.1 | 30.3
CPM | 1 | 13.4 | 19
MAPK8 | 1 | 4.7 | 16.4
FANCD2OS | 0 | 4 | 3.1
COA1 | 0 | -3.8 | -5.9
OR10H2 | 0 | -4.4 | 0.4
LOC441629 | 0 | 1.9 | 3.9
BLCAP | 0 | 8.3 | 8.7
TNK1 | 0 | 0.4 | -1.1
ANKRD37 | 0 | -4.1 | -8.8
BORA | -1 | -1.9 | 7.5
LOC440901 | 0 | 3.1 | 3.9
HAS2 | 0 | -1.4 | -10.7
GALNT1 | -2 (active) | -10.1 | -11.6
ASXL3 | 0 | 12.9 | 12.6
TRIM5 | 0 | -0.3 | -5.7

Limited to “protection from cisplatin (shift in death), siRNA C (%)” (4 entries from above):
FANCD2OS	3.1
COA1	-5.9
OR10H2	0.4
LOC441629	3.9
